Source: PubChem BioAssay AID1259254 (NCATS, 2017)
The deposit covers about 59,000 reagents; below is an unselected part. About 1,550 of them (2.6%) count as active. 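G2 share is only a proxy for re-replication; each gene was hit by three separate siRNAs, and active genes were retested.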 The raw values are shown without normalisation. A number with no mark means an inactive call. The numbers tell different reagents against one gene apart. Reagent sequences are not shown. The record does not give: the amount of reagent.

Test: 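Genome-wide screen for genes that prevent DNA re-replication in cancer cells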 (primary screen)
System: human HCT116 colorectal cancer cells
Knock-down reagent: single siRNA against human genes
Time to read-out: 3 days
Measured: 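Nuclei stained with Hoechst and imaged; cell-cycle phase assigned by DNA content; G2 share scaled per plate, non-targeting siRNA 0%, GMNN siRNA 100%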
Reading the numbers: G2 robust z-score and G2 cells, % of GMNN control: higher = more G2 cells, more excess DNA replication; raw share of cells in G2: higher = larger share of cells with G2 DNA content
Call rule: 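Active siRNAs have a G2 robust z of 5 or more median absolute deviations over the median, which in these data means about 38% or higher of GMNN control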

| gene knocked down | reagent | G2 robust z-score | G2 cells, % of GMNN control | raw share of cells in G2 (%) |
| --- | --- | --- | --- | --- |
| LARS2 (GeneID 23395) | 1 | 0.727 | 8.08 | 9.61 |
| LARS2 (GeneID 23395) | 2 | -0.901 | -3.38 | 3.03 |
| LARS2 (GeneID 23395) | 3 | 3.87 | 30.2 | 14.2 |
| RPS27AP5 (GeneID 100271374) | 1 | 6.47 (active) | 48.5 | 20.4 |
| RPS27AP5 (GeneID 100271374) | 2 | 0.591 | 7.13 | 6.51 |
| RPS27AP5 (GeneID 100271374) | 3 | 6.33 (active) | 47.5 | 25 |
| BIRC3 (GeneID 330) | 1 | -1.22 | -5.61 | 3.08 |
| BIRC3 (GeneID 330) | 2 | 0.772 | 8.4 | 7.58 |
| BIRC3 (GeneID 330) | 3 | -0.0377 | 2.7 | 5 |
| TMEM223 (GeneID 79064) | 1 | 2.12 | 17.9 | 12.4 |
| TMEM223 (GeneID 79064) | 2 | 0.0389 | 3.24 | 6.06 |
| TMEM223 (GeneID 79064) | 3 | -0.532 | -0.777 | 2.49 |
| THBS3 (GeneID 7059) | 1 | -0.338 | 0.587 | 4.75 |
| THBS3 (GeneID 7059) | 2 | 0.582 | 7.06 | 8.06 |
| THBS3 (GeneID 7059) | 3 | 0.308 | 5.13 | 5.66 |
| BDKRB2 (GeneID 624) | 1 | -0.785 | -2.55 | 4.93 |
| BDKRB2 (GeneID 624) | 2 | 6.05 (active) | 45.5 | 20.4 |
| BDKRB2 (GeneID 624) | 3 | 0.545 | 6.8 | 5.35 |
| LRRTM4 (GeneID 80059) | 1 | -0.541 | -0.837 | 4.48 |
| LRRTM4 (GeneID 80059) | 2 | -0.189 | 1.64 | 4.79 |
| LRRTM4 (GeneID 80059) | 3 | -0.776 | -2.49 | 4.39 |
| LOC643339 (GeneID 643339) | 1 | -0.317 | 0.736 | 3.92 |
| LOC643339 (GeneID 643339) | 2 | 1.62 | 14.4 | 8.45 |
| LOC643339 (GeneID 643339) | 3 | 4.34 | 33.5 | 12.9 |
| OR51L1 (GeneID 119682) | 1 | -0.388 | 0.237 | 1.89 |
| OR51L1 (GeneID 119682) | 2 | 3.31 | 26.3 | 14.6 |
| OR51L1 (GeneID 119682) | 3 | -0.523 | -0.712 | 3.12 |
| BRD2 (GeneID 6046) | 1 | 2.84 | 23 | 11.8 |
| BRD2 (GeneID 6046) | 2 | 2.67 | 21.7 | 12.5 |
| BRD2 (GeneID 6046) | 3 | 4.13 | 32 | 16.9 |
| CAMSAP3 (GeneID 57662) | 1 | -0.487 | -0.463 | 4.16 |
| CAMSAP3 (GeneID 57662) | 2 | 0.168 | 4.15 | 6.44 |
| CAMSAP3 (GeneID 57662) | 3 | -0.663 | -1.69 | 2.49 |
| SV2B (GeneID 9899) | 1 | -0.582 | -1.12 | 4.78 |
| SV2B (GeneID 9899) | 2 | 1.09 | 10.6 | 9.06 |
| SV2B (GeneID 9899) | 3 | -0.74 | -2.24 | 2.43 |
| TMEM140 (GeneID 55281) | 1 | 1.07 | 10.5 | 8.55 |
| TMEM140 (GeneID 55281) | 2 | -0.757 | -2.36 | 3.16 |
| TMEM140 (GeneID 55281) | 3 | 0.721 | 8.04 | 5.7 |
| SUOX (GeneID 6821) | 1 | 2.43 | 20 | 11.4 |
| SUOX (GeneID 6821) | 2 | 0.582 | 7.06 | 6.3 |
| SUOX (GeneID 6821) | 3 | 0.807 | 8.65 | 8.59 |
| FAM215B (GeneID 644297) | 1 | 0.136 | 3.93 | 5.13 |
| FAM215B (GeneID 644297) | 2 | 4.08 | 31.7 | 14.7 |
| FAM215B (GeneID 644297) | 3 | -0.615 | -1.36 | 2.75 |
| BMP8B (GeneID 656) | 1 | -0.134 | 2.03 | 5.41 |
| BMP8B (GeneID 656) | 2 | -0.628 | -1.45 | 4.56 |
| BMP8B (GeneID 656) | 3 | -0.545 | -0.864 | 3.67 |
| OR10P1 (GeneID 121130) | 1 | 0.357 | 5.48 | 6.29 |
| OR10P1 (GeneID 121130) | 2 | 0.0314 | 3.19 | 4.28 |
| OR10P1 (GeneID 121130) | 3 | 3.39 | 26.9 | 9.67 |
| PKD1L2 (GeneID 114780) | 1 | 1.88 | 16.2 | 13.2 |
| PKD1L2 (GeneID 114780) | 2 | -0.149 | 1.92 | 5.79 |
| PKD1L2 (GeneID 114780) | 3 | 2.87 | 23.1 | 13.2 |
| ZNF66 (GeneID 7617) | 1 | -0.608 | -1.31 | 4.55 |
| ZNF66 (GeneID 7617) | 2 | 2.44 | 20.2 | 11.9 |
| ZNF66 (GeneID 7617) | 3 | 0.493 | 6.44 | 5.62 |
| LINC01530 (GeneID 729975) | 1 | -0.771 | -2.45 | 2.28 |
| LINC01530 (GeneID 729975) | 2 | -0.129 | 2.06 | 4.9 |
| LINC01530 (GeneID 729975) | 3 | 4.15 | 32.2 | 14.1 |
| HSPBAP1 (GeneID 79663) | 1 | 0.354 | 5.46 | 6.71 |
| HSPBAP1 (GeneID 79663) | 2 | 3.13 | 25 | 15.2 |
| HSPBAP1 (GeneID 79663) | 3 | -1.37 | -6.66 | 0.556 |
| LAPTM5 (GeneID 7805) | 1 | -0.326 | 0.67 | 5.43 |
| LAPTM5 (GeneID 7805) | 2 | -0.155 | 1.88 | 4.64 |
| LAPTM5 (GeneID 7805) | 3 | 2.82 | 22.8 | 11.4 |
| NADK2 (GeneID 133686) | 1 | -0.428 | -0.044 | 4.16 |
| NADK2 (GeneID 133686) | 2 | 0.0291 | 3.17 | 4.11 |
| NADK2 (GeneID 133686) | 3 | -0.765 | -2.41 | 1.7 |

Sorted by “G2 robust z-score” (lowest first): some entries from above.
| gene knocked down | reagent | G2 robust z-score | G2 cells, % of GMNN control | raw share of cells in G2 (%) |
| --- | --- | --- | --- | --- |
| BIRC3 (GeneID 330) | 1 | -1.22 | -5.61 | 3.08 |
| BIRC3 (GeneID 330) | 3 | -0.0377 | 2.7 | 5 |
| BIRC3 (GeneID 330) | 2 | 0.772 | 8.4 | 7.58 |
| TMEM223 (GeneID 79064) | 1 | 2.12 | 17.9 | 12.4 |
| RPS27AP5 (GeneID 100271374) | 3 | 6.33 (active) | 47.5 | 25 |
